Measured values: publication doi:10.1101/2020.07.13.199828
Like-named read-outs stand apart in the source and are kept apart here. No constants are given. Whether binding was seen depends on the method and setting. In cells and extracts the contact can be indirect. Some binding calls cover weakened binding; strength is not graded here. Values belong to the molecule of their own block, whether it stands above or below them.

Amino acid sequences for entries named in this document (tags omitted).
UniProt Q6PD10: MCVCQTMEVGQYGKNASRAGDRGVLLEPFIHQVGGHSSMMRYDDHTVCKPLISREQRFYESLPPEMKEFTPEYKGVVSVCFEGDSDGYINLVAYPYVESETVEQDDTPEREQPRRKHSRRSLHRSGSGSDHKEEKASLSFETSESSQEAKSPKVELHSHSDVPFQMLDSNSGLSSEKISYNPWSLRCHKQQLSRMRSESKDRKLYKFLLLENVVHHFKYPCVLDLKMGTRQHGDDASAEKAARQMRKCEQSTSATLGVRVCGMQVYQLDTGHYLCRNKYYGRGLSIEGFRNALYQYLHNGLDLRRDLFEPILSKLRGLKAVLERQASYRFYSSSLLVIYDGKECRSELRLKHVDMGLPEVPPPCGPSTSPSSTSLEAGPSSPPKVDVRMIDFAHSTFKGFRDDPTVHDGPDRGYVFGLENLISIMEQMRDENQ
UniProt P06730: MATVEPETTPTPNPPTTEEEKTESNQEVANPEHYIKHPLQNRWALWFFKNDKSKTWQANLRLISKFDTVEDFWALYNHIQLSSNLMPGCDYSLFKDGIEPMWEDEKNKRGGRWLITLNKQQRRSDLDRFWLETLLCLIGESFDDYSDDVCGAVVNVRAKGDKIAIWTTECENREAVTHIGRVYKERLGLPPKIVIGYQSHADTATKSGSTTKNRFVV
UniProt P26196: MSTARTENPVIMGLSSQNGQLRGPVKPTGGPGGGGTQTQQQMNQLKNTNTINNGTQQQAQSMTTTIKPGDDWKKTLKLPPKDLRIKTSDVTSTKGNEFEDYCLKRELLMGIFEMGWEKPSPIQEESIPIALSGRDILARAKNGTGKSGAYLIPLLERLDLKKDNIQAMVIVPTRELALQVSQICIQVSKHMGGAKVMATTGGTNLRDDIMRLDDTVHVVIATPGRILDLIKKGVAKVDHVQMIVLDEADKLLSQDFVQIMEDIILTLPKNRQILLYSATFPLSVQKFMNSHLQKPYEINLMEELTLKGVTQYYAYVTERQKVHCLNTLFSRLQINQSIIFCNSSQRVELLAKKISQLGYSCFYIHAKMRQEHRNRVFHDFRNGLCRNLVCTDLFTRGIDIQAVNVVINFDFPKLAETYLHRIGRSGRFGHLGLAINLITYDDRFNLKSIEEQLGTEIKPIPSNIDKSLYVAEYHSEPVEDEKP
UniProt Q04637: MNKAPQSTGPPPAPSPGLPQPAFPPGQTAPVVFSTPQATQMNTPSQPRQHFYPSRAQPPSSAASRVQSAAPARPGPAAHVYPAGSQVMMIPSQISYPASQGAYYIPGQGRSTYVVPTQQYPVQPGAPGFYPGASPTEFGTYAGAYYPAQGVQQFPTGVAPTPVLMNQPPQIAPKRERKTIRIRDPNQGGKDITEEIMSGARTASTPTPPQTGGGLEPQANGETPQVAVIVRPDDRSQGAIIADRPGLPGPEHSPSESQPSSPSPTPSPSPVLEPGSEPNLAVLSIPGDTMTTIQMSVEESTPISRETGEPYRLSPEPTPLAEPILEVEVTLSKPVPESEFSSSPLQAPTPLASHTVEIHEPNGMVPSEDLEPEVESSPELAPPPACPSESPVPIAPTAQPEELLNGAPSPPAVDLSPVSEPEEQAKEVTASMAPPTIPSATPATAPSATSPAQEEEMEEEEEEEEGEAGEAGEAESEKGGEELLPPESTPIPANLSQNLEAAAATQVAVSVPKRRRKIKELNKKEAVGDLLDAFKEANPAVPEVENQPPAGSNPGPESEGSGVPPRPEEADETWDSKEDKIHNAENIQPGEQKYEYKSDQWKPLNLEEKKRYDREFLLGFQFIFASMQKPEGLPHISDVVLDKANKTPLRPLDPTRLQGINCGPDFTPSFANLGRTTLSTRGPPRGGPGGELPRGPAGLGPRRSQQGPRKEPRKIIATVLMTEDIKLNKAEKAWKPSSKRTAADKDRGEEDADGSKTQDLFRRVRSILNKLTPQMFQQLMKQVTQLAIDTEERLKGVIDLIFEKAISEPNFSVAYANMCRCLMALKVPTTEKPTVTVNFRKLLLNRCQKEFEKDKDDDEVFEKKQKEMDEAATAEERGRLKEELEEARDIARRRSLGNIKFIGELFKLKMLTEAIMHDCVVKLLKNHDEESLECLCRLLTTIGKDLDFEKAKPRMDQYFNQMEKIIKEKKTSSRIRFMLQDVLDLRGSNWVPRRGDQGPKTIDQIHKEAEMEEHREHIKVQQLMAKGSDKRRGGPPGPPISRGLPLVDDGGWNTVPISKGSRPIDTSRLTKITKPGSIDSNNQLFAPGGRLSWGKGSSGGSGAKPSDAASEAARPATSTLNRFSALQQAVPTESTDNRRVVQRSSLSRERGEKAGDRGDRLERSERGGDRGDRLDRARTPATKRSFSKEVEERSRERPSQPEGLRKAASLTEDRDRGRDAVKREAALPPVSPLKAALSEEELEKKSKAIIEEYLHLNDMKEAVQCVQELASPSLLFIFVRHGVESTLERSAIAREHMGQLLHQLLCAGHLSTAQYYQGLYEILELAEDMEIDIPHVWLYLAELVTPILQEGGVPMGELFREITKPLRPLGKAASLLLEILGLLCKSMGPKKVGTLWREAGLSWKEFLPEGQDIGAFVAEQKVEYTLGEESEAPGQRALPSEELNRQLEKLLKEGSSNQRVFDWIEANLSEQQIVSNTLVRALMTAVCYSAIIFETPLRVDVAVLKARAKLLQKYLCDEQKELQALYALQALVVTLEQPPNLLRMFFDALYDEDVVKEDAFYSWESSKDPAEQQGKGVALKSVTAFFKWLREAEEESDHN
UniProt Q14240: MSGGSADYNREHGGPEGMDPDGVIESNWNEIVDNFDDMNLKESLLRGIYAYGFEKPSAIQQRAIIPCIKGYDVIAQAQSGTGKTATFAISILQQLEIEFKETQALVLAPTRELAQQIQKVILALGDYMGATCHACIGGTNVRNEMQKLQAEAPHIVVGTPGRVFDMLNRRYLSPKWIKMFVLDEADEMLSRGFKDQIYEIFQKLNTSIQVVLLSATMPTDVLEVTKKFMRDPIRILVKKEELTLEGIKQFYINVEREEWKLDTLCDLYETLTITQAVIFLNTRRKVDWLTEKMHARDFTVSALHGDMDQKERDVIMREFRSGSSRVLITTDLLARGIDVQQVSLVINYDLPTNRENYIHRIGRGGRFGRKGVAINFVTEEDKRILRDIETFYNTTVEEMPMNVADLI

Experiments:
SFB-tagged IP6K1 (mouse) [1] = molecular target: SFB-tagged IP6K1 (mouse) (UniProt Q6PD10); experiment: pull-down
[2] = molecular target: eIF4E (human (endogenous in HEK293T and U-2 OS)) (UniProt P06730); experiment: pull-down
GFP-tagged DDX6 (human) = GFP-tagged DDX6 (human) (UniProt P26196); experiment: co-IP
SFB-tagged IP6K1 (mouse) [3] = molecular target: SFB-tagged IP6K1 (mouse) (UniProt Q6PD10); experiment: co-IP
SFB-tagged IP6K1 (mouse) [4] = molecular target: SFB-tagged IP6K1 (mouse) (UniProt Q6PD10); experiment: pull-down; remark: listed apart in the source
[5] = molecular target: eIF4E (human (endogenous in HEK293T and U-2 OS)) (UniProt P06730); experiment: pull-down; remark: listed apart in the source

Molecule: eIF4G1 (from UniProt Q04637 1-1599)
binding (SFB-tagged IP6K1 (mouse) [1]): binds

Molecule: eIF4A2 (from UniProt Q14240 1-407) (enzyme)
binding [2]: binds
binding (SFB-tagged IP6K1 (mouse) [1]): binds

Molecule: eIF4E (from UniProt P06730 1-217)
binding (GFP-tagged DDX6 (human)): binds

Second part, the molecule after the results:

binding (GFP-tagged DDX6 (human)): binds
binding (SFB-tagged IP6K1 (mouse) [3]): binds
binding (SFB-tagged IP6K1 (mouse) [4]): binds
B1: EDC4 (protein, UniProt Q6P2E9 1-1401)
chain: MASCASIDIEDATQHLRDILKLDRPAGGPSAESPRPSSAYNGDLNGLLVPDPLCSGDSTSANKTGLRTMPPINLQEKQVICLSGDDSSTCIGILAKEVEIVASSDSSISSKARGSNKVKIQPVAKYDWEQKYYYGNLIAVSNSFLAYAIRAANNGSAMVRVISVSTSERTLLKGFTGSVADLAFAHLNSPQLACLDEAGNLFVWRLALVNGKIQEEILVHIRQPEGTPLNHFRRIIWCPFIPEESEDCCEESSPTVALLHEDRAEVWDLDMLRSSHSTWPVDVSQIKQGFIVVKGHSTCLSEGALSPDGTVLATASHDGYVKFWQIYIEGQDEPRCLHEWKPHDGRPLSCLLFCDNHKKQDPDVPFWRFLITGADQNRELKMWCTVSWTCLQTIRFSPDIFSSVSVPPSLKVCLDLSAEYLILSDVQRKVLYVMELLQNQEEGHACFSSISEFLLTHPVLSFGIQVVSRCRLRHTEVLPAEEENDSLGADGTHGAGAMESAAGVLIKLFCVHTKALQDVQIRFQPQLNPDVVAPLPTHTAHEDFTFGESRPELGSEGLGSAAHGSQPDLRRIVELPAPADFLSLSSETKPKLMTPDAFMTPSASLQQITASPSSSSSGSSSSSSSSSSSLTAVSAMSSTSAVDPSLTRPPEELTLSPKLQLDGSLTMSSSGSLQASPRGLLPGLLPAPADKLTPKGPGQVPTATSALSLELQEVEPLGLPQASPSRTRSPDVISSASTALSQDIPEIASEALSRGFGSSAPEGLEPDSMASAASALHLLSPRPRPGPELGPQLGLDGGPGDGDRHNTPSLLEAALTQEASTPDSQVWPTAPDITRETCSTLAESPRNGLQEKHKSLAFHRPPYHLLQQRDSQDASAEQSDHDDEVASLASASGGFGTKVPAPRLPAKDWKTKGSPRTSPKLKRKSKKDDGDAAMGSRLTEHQVAEPPEDWPALIWQQQRELAELRHSQEELLQRLCTQLEGLQSTVTGHVERALETRHEQEQRRLERALAEGQQRGGQLQEQLTQQLSQALSSAVAGRLERSIRDEIKKTVPPCVSRSLEPMAGQLSNSVATKLTAVEGSMKENISKLLKSKNLTDAIARAAADTLQGPMQAAYREAFQSVVLPAFEKSCQAMFQQINDSFRLGTQEYLQQLESHMKSRKAREQEAREPVLAQLRGLVSTLQSATEQMAATVAGSVRAEVQHQLHVAVGSLQESILAQVQRIVKGEVSVALKEQQAAVTSSIMQAMRSAAGTPVPSAHLDCQAQQAHILQLLQQGHLNQAFQQALTAADLNLVLYVCETVDPAQVFGQPPCPLSQPVLLSLIQQLASDLGTRTDLKLSYLEEAVMHLDHSDPITRDHMGSVMAQVRQKLFQFLQAEPHNSLGKAARRLSLMLHGLVTPSLP

binding (GFP-tagged DDX6 (human)): binds
binding [5]: binds
B2: 4E-T (protein, UniProt Q9NRA8 1-985)
chain: MDRRSMGETESGDAFLDLKKPPASKCPHRYTKEELLDIKELPHSKQRPSCLSEKYDSDGVWDPEKWHASLYPASGRSSPVESLKKELDTDRPSLVRRIVDPRERVKEDDLDVVLSPQRRSFGGGCHVTAAVSSRRSGSPLEKDSDGLRLLGGRRIGSGRIISARTFEKDHRLSDKDLRDLRDRDRERDFKDKRFRREFGDSKRVFGERRRNDSYTEEEPEWFSAGPTSQSETIELTGFDDKILEEDHKGRKRTRRRTASVKEGIVECNGGVAEEDEVEVILAQEPAADQEVPRDAVLPEQSPGDFDFNEFFNLDKVPCLASMIEDVLGEGSVSASRFSRWFSNPSRSGSRSSSLGSTPHEELERLAGLEQAILSPGQNSGNYFAPIPLEDHAENKVDILEMLQKAKVDLKPLLSSLSANKEKLKESSHSGVVLSVEEVEAGLKGLKVDQQVKNSTPFMAEHLEETLSAVTNNRQLKKDGDMTAFNKLVSTMKASGTLPSQPKVSRNLESHLMSPAEIPGQPVPKNILQELLGQPVQRPASSNLLSGLMGSLEPTTSLLGQRAPSPPLSQVFQTRAASADYLRPRIPSPIGFTPGPQQLLGDPFQGMRKPMSPITAQMSQLELQQAALEGLALPHDLAVQAANFYQPGFGKPQVDRTRDGFRNRQQRVTKSPAPVHRGNSSSPAPAASITSMLSPSFTPTSVIRKMYESKEKSKEEPASGKAALGDSKEDTQKASEENLLSSSSVPSADRDSSPTTNSKLSALQRSSCSTPLSQANRYTKEQDYRPKATGRKTPTLASPVPTTPFLRPVHQVPLVPHVPMVRPAHQLHPGLVQRMLAQGVHPQHLPSLLQTGVLPPGMDLSHLQGISGPILGQPFYPLPAASHPLLNPRPGTPLHLAMVQQQLQRSVLHPPGSGSHAAAVSVQTTPQNVPSRSGLPHMHSQLEHRPSQRSSSPVGLAKWFGSDVLQQPLPSMPAKVISVDELEYRQ
